Some entries share one result that the patent states for a list of compounds.
The compounds below were run on male C57BL/6N mouse (assay: Neutral fat absorption inhibitory effect (triglyceride concentration in small intestine lymph fluid after oral fat emulsion)). Conditions: compound 10 or 30 mg/kg orally with 20% neutral fat emulsion, one hour after administration.
Assay type: in vivo
In the case of `COc1ccc(Cl)cc1NC(=O)Nc1ccc(N2CCN(C(=O)Nc3c(Cl)cccc3Cl)CC2)cc1` [Example 132, 4-{4-[3-(5-chloro-2-methoxy-phenyl)-ureido]-phenyl}-piperazine-1-carboxylic acid (2,6-dichloro-phenyl)-amide], the “neutral fat absorption inhibitory effect (decrease in triglyceride concentration in lymph fluid vs control group)” value is reported as no less than 60%. For `CCOc1ccccc1NC(=O)Nc1ccc(N2CCN(C(=O)Nc3c(Cl)cccc3Cl)CC2)cc1` [Example 133, 4-{4-[3-(2-ethoxy-phenyl)-ureido]-phenyl}-piperazine-1-carboxylic acid (2,6-dichloro-phenyl)-amide], the “neutral fat absorption inhibitory effect (decrease in triglyceride concentration in lymph fluid vs control group)” value was no less than 60%. With `CCOc1ccc(C)cc1NC(=O)Nc1ccc(N2CCN(C(=O)Nc3c(Cl)cccc3Cl)CC2)cc1` [Example 134, 4-{4-[3-(2-ethoxy-5-methyl-phenyl)-ureido]-phenyl}-piperazine-1-carboxylic acid (2,6-dichloro-phenyl)-amide] the “neutral fat absorption inhibitory effect (decrease in triglyceride concentration in lymph fluid vs control group)” value was no less than 60%. `CCOc1ccc(Cl)cc1NC(=O)Nc1ccc(N2CCN(C(=O)Nc3c(Cl)cccc3Cl)CC2)cc1` [Example 135, 4-{4-[3-(5-chloro-2-ethoxy-phenyl)-ureido]-phenyl}-piperazine-1-carboxylic acid (2,6-dichloro-phenyl)-amide] was tested, and the “neutral fat absorption inhibitory effect (decrease in triglyceride concentration in lymph fluid vs control group)” value was no less than 60%. `COc1ccc(C)cc1NC(=O)Nc1ccc(N2CCN(C(=O)Nc3c(C)cccc3C)CC2)nc1` [Example 138, 4-{5-[3-(2-methoxy-5-methyl-phenyl)-ureido]-pyridin-2-yl}-piperazine-1-carboxylic acid (2,6-dimethyl-phenyl)-amide] was tested, and the “neutral fat absorption inhibitory effect (decrease in triglyceride concentration in lymph fluid vs control group)” value was no less than 60%. `COc1ccc(C)cc1NC(=O)Nc1ccc(N2CCN(C(=O)Nc3c(F)cccc3C(F)(F)F)CC2)nc1` [Example 139, 4-{5-[3-(2-methoxy-5-methyl-phenyl)-ureido]-pyridin-2-yl}-piperazine-1-carboxylic acid (2-fluoro-6-trifluoromethyl-phenyl)-amide] was tested, and the “neutral fat absorption inhibitory effect (decrease in triglyceride concentration in lymph fluid vs control group)” value was no less than 60%. For `COc1ccc(C)cc1NC(=O)Nc1ccc(N2CCN(C(=O)Nc3c(Cl)cccc3Cl)CC2)nc1` [Example 140, 4-{5-[3-(2-methoxy-5-methyl-phenyl)-ureido]-pyridin-2-yl}-piperazine-1-carboxylic acid (2,6-dichloro-phenyl)-amide], the “neutral fat absorption inhibitory effect (decrease in triglyceride concentration in lymph fluid vs control group)” value was no less than 60%. With `CCOc1ccccc1NC(=O)Nc1ccc(N2CCN(C(=O)Nc3c(C)cccc3Cl)CC2)nc1` [Example 141, 4-{5-[3-(2-ethoxy-phenyl)-ureido]-pyridin-2-yl}-piperazine-1-carboxylic acid (2-chloro-6-methyl-phenyl)-amide] the “neutral fat absorption inhibitory effect (decrease in triglyceride concentration in lymph fluid vs control group)” value was no less than 60%. `CCOc1ccccc1NC(=O)Nc1ccc(N2CCN(C(=O)Nc3c(C)cccc3C)CC2)nc1` [Example 142, 4-{5-[3-(2-ethoxy-phenyl)-ureido]-pyridin-2-yl}-piperazine-1-carboxylic acid (2,6-dimethyl-phenyl)-amide] was tested, and the “neutral fat absorption inhibitory effect (decrease in triglyceride concentration in lymph fluid vs control group)” value was no less than 60%. `CCOc1ccccc1NC(=O)Nc1ccc(N2CCN(C(=O)Nc3c(Cl)cccc3Cl)CC2)nc1` [Example 144, 4-{5-[3-(2-ethoxy-phenyl)-ureido]-pyridin-2-yl}-piperazine-1-carboxylic acid (2,6-dichloro-phenyl)-amide] was tested, and the “neutral fat absorption inhibitory effect (decrease in triglyceride concentration in lymph fluid vs control group)” value was no less than 60%. With `CCCCOc1ccc(NC(=O)Nc2ccc(N3CCN(C(=O)Nc4c(C)cccc4Cl)CC3)cc2)cc1` [Example 162, 4-{4-[3-(4-butoxy-phenyl)-ureido]-phenyl}-piperazine-1-carboxylic acid (2-chloro-6-methyl-phenyl)-amide] the “neutral fat absorption inhibitory effect (decrease in triglyceride concentration in lymph fluid vs control group)” value was no less than 60%. `COc1ccc(C)cc1NC(=O)Nc1ccc(N2CCN(C(=O)Nc3ccc(N)cc3C(F)(F)F)CC2)cc1` [Example 166, 4-{4-[3-(2-methoxy-5-methyl-phenyl)-ureido]-phenyl}-piperazine-1-carboxylic acid (4-amino-2-trifluoromethyl-phenyl)-amide] was tested, and the “neutral fat absorption inhibitory effect (decrease in triglyceride concentration in lymph fluid vs control group)” value was no less than 60%. For `COc1ccc(C)cc1NC(=O)Nc1ccc(N2CCN(C(=O)Nc3ccc(N)cc3Cl)CC2)cc1` [Example 168, 4-{4-[3-(2-methoxy-5-methyl-phenyl)-ureido]-phenyl}-piperazine-1-carboxylic acid (4-amino-2-chloro-phenyl)-amide], the “neutral fat absorption inhibitory effect (decrease in triglyceride concentration in lymph fluid vs control group)” value was no less than 60%. For `COc1ccc(C)cc1NC(=O)Nc1ccc(N2CCN(C(=O)Nc3ccc(NC(C)=O)cc3Cl)CC2)cc1` [Example 169, 4-{4-[3-(2-methoxy-5-methyl-phenyl)-ureido]-phenyl}-piperazine-1-carboxylic acid (4-acetylamino-2-chloro-phenyl)-amide], the “neutral fat absorption inhibitory effect (decrease in triglyceride concentration in lymph fluid vs control group)” value was no less than 60%. With `COc1ccc(C)cc1NC(=O)Nc1ccc(N2CCN(C(=O)Nc3ccc(NC(C)=O)cc3C(F)(F)F)CC2)cc1` [Example 173, 4-{4-[3-(2-methoxy-5-methyl-phenyl)-ureido]-phenyl}-piperazine-1-carboxylic acid (4-acetylamino-2-trifluoromethyl-phenyl)-amide] the “neutral fat absorption inhibitory effect (decrease in triglyceride concentration in lymph fluid vs control group)” value was no less than 60%. For `COc1ccc(C)cc1NC(=O)Nc1ccc(N2CCN(C(=O)Nc3c(C)cccc3Br)CC2)cc1` [Example 177, 4-{4-[3-(2-methoxy-5-methyl-phenyl)-ureido]-phenyl}-piperazine-1-carboxylic acid (2-bromo-6-methyl-phenyl)-amide], the “neutral fat absorption inhibitory effect (decrease in triglyceride concentration in lymph fluid vs control group)” value was no less than 60%. With `COc1ccc(C)cc1NC(=O)Nc1ccc(N2CCN(C(=O)Nc3c(C)cccc3C(=O)O)CC2)cc1` [Example 179, 2-[(4-{4-[3-(2-methoxy-5-methyl-phenyl)-ureido]-phenyl}-piperazine-1-carbonyl)-amino]-3-methyl-benzoic acid] the “neutral fat absorption inhibitory effect (decrease in triglyceride concentration in lymph fluid vs control group)” value was no less than 60%. In the case of `COc1ccc(C)cc1NC(=O)Nc1ccc(N2CCN(C(=O)Nc3ccc(C(=O)O)cc3C)CC2)cc1` [Example 180, 4-[(4-{4-[3-(2-methoxy-5-methyl-phenyl)-ureido]-phenyl}-piperazine-1-carbonyl)-amino]-3-methyl-benzoic acid], the “neutral fat absorption inhibitory effect (decrease in triglyceride concentration in lymph fluid vs control group)” value is reported as no less than 60%. With `COc1ccc(C)cc1NC(=O)Nc1ccc(N2CCN(C(=O)Nc3ccc(C(=O)O)cc3Cl)CC2)cc1` [Example 181, 3-chloro-4-[(4-{4-[3-(2-methoxy-5-methyl-phenyl)-ureido]-phenyl}-piperazine-1-carbonyl)-amino]-benzoic acid] the “neutral fat absorption inhibitory effect (decrease in triglyceride concentration in lymph fluid vs control group)” value was no less than 60%. In the case of `CCOc1ccc(C)cc1NC(=O)Nc1ccc(N2CCN(C(=O)Nc3c(C)cccc3OC)CC2)cc1` [Example 184, 4-{4-[3-(2-ethoxy-5-methyl-phenyl)-ureido]-phenyl}-piperazine-1-carboxylic acid (2-methoxy-6-methyl-phenyl)-amide], the “neutral fat absorption inhibitory effect (decrease in triglyceride concentration in lymph fluid vs control group)” value is reported as no less than 60%. For `COc1ccc(C)cc1NC(=O)Nc1ccc(N2CCN(C(=O)Nc3c(C)cccc3CO)CC2)cc1` [Example 185, 4-{4-[3-(2-methoxy-5-methyl-phenyl)-ureido]-phenyl}-piperazine-1-carboxylic acid (2-hydroxymethyl-6-methyl-phenyl)-amide], the “neutral fat absorption inhibitory effect (decrease in triglyceride concentration in lymph fluid vs control group)” value was no less than 60%. With `CCOc1ccccc1NC(=O)Nc1ccc(N2CCN(C(=O)Nc3c(C)cccc3OC)CC2)nc1` [Example 187, 4-{5-[3-(2-ethoxy-phenyl)-ureido]-pyridin-2-yl}-piperazine-1-carboxylic acid (2-methoxy-6-methyl-phenyl)-amide] the “neutral fat absorption inhibitory effect (decrease in triglyceride concentration in lymph fluid vs control group)” value was no less than 60%. With `COc1ccc(C)cc1NC(=O)Nc1ccc(N2CCN(C(=O)Nc3c(C)cccc3Cl)C(C)C2)cc1` (stereo not shown) [Example 198, 4-{4-[3-(2-methoxy-5-methyl-phenyl)-ureido]-phenyl}-2-methyl-piperazine-1-carboxylic acid (2-chloro-6-methyl-phenyl)-amide] the “neutral fat absorption inhibitory effect (decrease in triglyceride concentration in lymph fluid vs control group)” value was no less than 60%. With `COc1ccc(C)cc1NC(=O)Nc1ccc(N2CCN(C(=O)Nc3ccc(OCCO)cc3C)CC2)cc1` [Example 208, 4-{4-[3-(2-methoxy-5-methyl-phenyl)-ureido]-phenyl}-piperazine-1-carboxylic acid [4-(2-hydroxy-ethoxy)-2-methyl-phenyl]-amide] the “neutral fat absorption inhibitory effect (decrease in triglyceride concentration in lymph fluid vs control group)” value was no less than 60%. For `COc1ccc(C)cc1NC(=O)Nc1ccc(N2CCN(C(=O)Nc3ccc(OCCO)cc3C(F)(F)F)CC2)cc1` [Example 209, 4-{4-[3-(2-methoxy-5-methyl-phenyl)-ureido]-phenyl}-piperazine-1-carboxylic acid [4-(2-hydroxy-ethoxy)-2-trifluoromethyl-phenyl]-amide], the “neutral fat absorption inhibitory effect (decrease in triglyceride concentration in lymph fluid vs control group)” value was no less than 60%. `COc1ccc(C)cc1NC(=O)Nc1ccc(N2CCN(C(=O)Nc3ccc(OCCO)cc3F)CC2)cc1` [Example 210, 4-{4-[3-(2-methoxy-5-methyl-phenyl)-ureido]-phenyl}-piperazine-1-carboxylic acid [2-fluoro-4-(2-hydroxy-ethoxy)-phenyl]-amide] was tested, and the “neutral fat absorption inhibitory effect (decrease in triglyceride concentration in lymph fluid vs control group)” value was no less than 60%. In the case of `O=C(Nc1ccc(N2CCN(C(=O)Nc3ccc(OCCO)cc3C(F)(F)F)CC2)cc1)Nc1ccccc1F` [Example 211, 4-{4-[3-(2-fluoro-phenyl)-ureido]-phenyl}-piperazine-1-carboxylic acid [4-(2-hydroxy-ethoxy)-2-trifluoromethyl-phenyl]-amide], the “neutral fat absorption inhibitory effect (decrease in triglyceride concentration in lymph fluid vs control group)” value is reported as no less than 60%. In the case of `COc1ccc(F)cc1NC(=O)Nc1ccc(N2CCN(C(=O)Nc3ccc(OCCO)cc3C(F)(F)F)CC2)cc1` [Example 212, 4-{4-[3-(5-fluoro-2-methoxy-phenyl)-ureido]-phenyl}-piperazine-1-carboxylic acid [4-(2-hydroxy-ethoxy)-2-trifluoromethyl-phenyl]-amide], the “neutral fat absorption inhibitory effect (decrease in triglyceride concentration in lymph fluid vs control group)” value is reported as no less than 60%.
